Source: PubChem BioAssay AID1159578 (Peter MacCallum Cancer Centre, 2015)
Shown is one part, drawn at random, of about 18,000 reagents tested. About 1,030 of all reagents (5.7%) were called active. 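Inactive calls also include pools with fewer than 3300 nuclei, whose migration was not assessed.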 Raw values vary from plate to plate and are shown uncorrected.

Purpose: 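Knock-downs that alter how fast lymphatic endothelial cells migrate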 (primary screen)
System: human lymphatic endothelial cells
Reagents: siRNA pool against human genes, 40 nM
Duration: 48 h after transfection
Measurement: 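High-content imaging of dye-stained cells in a scratch assay measures filled wound area and nuclei per well; duplicate means given as ratio to mock and robust z-score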
Direction: migration robust z-score: higher = faster migration into the scratch; migration relative to mock: higher = more scratch area covered than mock; nuclei per well: higher = more cells in the well
Rule for the call: 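Migration changed when robust z exceeds 2 or falls below -2 and mean nuclei number is at least 3300; otherwise not called changed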
Meaning of the calls: active = migration changed; inactive = no migration change, or too few cells

target gene | PubChem SID | migration robust z-score | migration class with cell-count check | migration relative to mock | nuclei per well, duplicate mean | Outcome
SLC18A3 (GeneID 6572) | SID255352498 | 0.6 | migration z between -2 and 2; enough cells | 0.92 | 5834 | inactive
POMGNT2 (GeneID 84892) | SID255361554 | 1.06 | migration z between -2 and 2; enough cells | 1.16 | 6425 | inactive
OR4S1 (GeneID 256148) | SID255364517 | 1.02 | migration z between -2 and 2; enough cells | 1.15 | 7372 | inactive
OR2H2 (GeneID 7932) | SID255353343 | -1 | migration z between -2 and 2; enough cells | 0.62 | 5631 | inactive
SPSB3 (GeneID 90864) | SID255361869 | 0.7 | migration z between -2 and 2; enough cells | 0.94 | 5214 | inactive
RNF135 (GeneID 84282) | SID255361297 | -1.74 | migration z between -2 and 2; enough cells | 0.47 | 4618 | inactive
ASAP2 (GeneID 8853) | SID255353868 | 0.18 | migration z between -2 and 2; enough cells | 0.94 | 5998 | inactive
TRIB3 (GeneID 57761) | SID255359587 | 0.26 | migration z between -2 and 2; enough cells | 0.86 | 5194 | inactive
JCHAIN (GeneID 3512) | SID255350436 | -0.04 | migration z between -2 and 2; enough cells | 0.88 | 7002 | inactive
PTH2 (GeneID 113091) | SID255362173 | -2.66 | migration z below -2; enough cells | 0.2 | 5473 | active
EIPR1 (GeneID 7260) | SID255352986 | 0.72 | migration z between -2 and 2; enough cells | 1.07 | 5824 | inactive
PRR14L (GeneID 253143) | SID255364414 | -0.84 | migration z between -2 and 2; enough cells | 0.66 | 6018 | inactive
ANP32B (GeneID 10541) | SID255355165 | 1.04 | migration z between -2 and 2; enough cells | 1.15 | 6203 | inactive
RCAN1 (GeneID 1827) | SID255349378 | -1.45 | migration z between -2 and 2; enough cells | 0.52 | 4394 | inactive
SYK (GeneID 6850) | SID255352713 | -1.97 | migration z between -2 and 2; enough cells | 0.42 | 3571 | inactive
FRMPD2 (GeneID 143162) | SID255363178 | 0.22 | migration z between -2 and 2; enough cells | 0.94 | 5420 | inactive
SIAH1 (GeneID 6477) | SID255352415 | -0.26 | migration z between -2 and 2; enough cells | 0.75 | 4803 | inactive
ZNF804B (GeneID 219578) | SID255364183 | -0.74 | migration z between -2 and 2; enough cells | 0.69 | 5506 | inactive
CLPTM1L (GeneID 81037) | SID255360850 | -2.54 | migration z below -2; enough cells | 0.23 | 5896 | active
KCTD14 (GeneID 65987) | SID255360123 | -0.86 | migration z between -2 and 2; enough cells | 0.64 | 4723 | inactive
ALDH2 (GeneID 217) | SID255348260 | 0.83 | migration z between -2 and 2; enough cells | 0.96 | 5742 | inactive
NR5A2 (GeneID 2494) | SID255349757 | -0.29 | migration z between -2 and 2; enough cells | 0.75 | 5520 | inactive
PSG5 (GeneID 5673) | SID255351870 | 1.05 | migration z between -2 and 2; enough cells | 1.16 | 6844 | inactive
TRAPPC5 (GeneID 126003) | SID255362676 | 0.52 | migration z between -2 and 2; enough cells | 1.02 | 6931 | inactive
F5 (GeneID 2153) | SID255349598 | 1.01 | migration z between -2 and 2; enough cells | 1 | 7144 | inactive
IL17B (GeneID 27190) | SID255356970 | -0.64 | migration z between -2 and 2; enough cells | 0.72 | 5654 | inactive
NKAIN1 (GeneID 79570) | SID255360301 | 0.17 | migration z between -2 and 2; enough cells | 0.93 | 5644 | inactive
PXMP2 (GeneID 5827) | SID255351984 | 0.72 | migration z between -2 and 2; enough cells | 1.07 | 5945 | inactive
ZNF134 (GeneID 7693) | SID255353235 | -1.62 | migration z between -2 and 2; enough cells | 0.46 | 5666 | inactive
ZNF669 (GeneID 79862) | SID255360522 | -3.52 | under 3300 nuclei; migration not judged | -0.05 | 2224 | inactive
FCRL2 (GeneID 79368) | SID255360279 | -3.71 | migration z below -2; enough cells | 0.09 | 5620 | active
DHRS4L2 (GeneID 317749) | SID255364939 | -0.45 | migration z between -2 and 2; enough cells | 0.77 | 5948 | inactive
MTHFS (GeneID 10588) | SID255355205 | 0.83 | migration z between -2 and 2; enough cells | 0.97 | 4003 | inactive
USP14 (GeneID 9097) | SID255354032 | 0.8 | migration z between -2 and 2; enough cells | 0.96 | 5482 | inactive
ADAM32 (GeneID 203102) | SID255364116 | 0.08 | migration z between -2 and 2; enough cells | 0.82 | 5712 | inactive
ZNF585B (GeneID 92285) | SID255361996 | -0.3 | migration z between -2 and 2; enough cells | 0.81 | 4466 | inactive
IFRD2 (GeneID 7866) | SID255353323 | -1.39 | migration z between -2 and 2; enough cells | 0.53 | 5642 | inactive
CABIN1 (GeneID 23523) | SID255356299 | 0.54 | migration z between -2 and 2; enough cells | 1.02 | 5483 | inactive
IL9R (GeneID 3581) | SID255350467 | -2.08 | migration z below -2; enough cells | 0.4 | 5770 | active
LENG8 (GeneID 114823) | SID255362257 | 0.02 | migration z between -2 and 2; enough cells | 0.89 | 5816 | inactive
ITGB6 (GeneID 3694) | SID255350555 | -0.08 | migration z between -2 and 2; enough cells | 0.79 | 4544 | inactive
CABS1 (GeneID 85438) | SID255361690 | -0.68 | migration z between -2 and 2; enough cells | 0.71 | 5613 | inactive
SLAMF8 (GeneID 56833) | SID255359126 | -0.48 | migration z between -2 and 2; enough cells | 0.76 | 4916 | inactive
ECI2 (GeneID 10455) | SID255355091 | -0.65 | migration z between -2 and 2; enough cells | 0.68 | 4494 | inactive
ST3GAL6 (GeneID 10402) | SID255355050 | -0.91 | migration z between -2 and 2; enough cells | 0.63 | 5545 | inactive
DSC1 (GeneID 1823) | SID255349374 | 1.24 | migration z between -2 and 2; enough cells | 1.21 | 6634 | inactive
ZW10 (GeneID 9183) | SID255354098 | -1.31 | migration z between -2 and 2; enough cells | 0.55 | 3834 | inactive
RTN4RL1 (GeneID 146760) | SID255363296 | -0.16 | migration z between -2 and 2; enough cells | 0.84 | 6508 | inactive
ZNF700 (GeneID 90592) | SID255361844 | -0.2 | migration z between -2 and 2; enough cells | 0.84 | 6365 | inactive
CNN2 (GeneID 1265) | SID255348993 | 0.48 | migration z between -2 and 2; enough cells | 1.01 | 5927 | inactive
RAMP3 (GeneID 10268) | SID255354951 | -0.52 | migration z between -2 and 2; enough cells | 0.75 | 5792 | inactive
DOCK7 (GeneID 85440) | SID255361692 | 0.02 | migration z between -2 and 2; enough cells | 0.89 | 6176 | inactive
SMAD4 (GeneID 4089) | SID255350837 | 0.06 | migration z between -2 and 2; enough cells | 0.82 | 5995 | inactive
LIMCH1 (GeneID 22998) | SID255355918 | 1.02 | migration z between -2 and 2; enough cells | 1.16 | 6212 | inactive
CLSPN (GeneID 63967) | SID255359792 | 0.23 | migration z between -2 and 2; enough cells | 0.94 | 4080 | inactive
GARS1 (GeneID 2617) | SID255349829 | 1.12 | migration z between -2 and 2; enough cells | 1.02 | 5048 | inactive
GM2A (GeneID 2760) | SID255349925 | -0.1 | migration z between -2 and 2; enough cells | 0.78 | 5752 | inactive

Look-ups from the list.
Entry for ALDH2 (GeneID 217) [SID255348260] under “nuclei per well, duplicate mean”: 5742
Under “Outcome”, RAMP3 (GeneID 10268) [SID255354951] reads inactive
Under “migration robust z-score”, MTHFS (GeneID 10588) [SID255355205] is entered as 0.83
PXMP2 (GeneID 5827) [SID255351984], migration robust z-score = 0.72
Under “Outcome”, ZNF134 (GeneID 7693) [SID255353235] has inactive
DSC1 (GeneID 1823) [SID255349374], migration robust z-score → 1.24
